Results from the supplement of paper PMC8728848.
The other results are listed elsewhere or left out.

How the values were obtained:
Experiment in all cases: glycan array binding signal (z-score within array); higher = stronger binding
Settings in all cases: glycan notation: IUPAC condensed, linker removed
[1] = target: Gal(b1-3)GalNAc(b1-3)Gal(a1-4)Gal(b1-4)Glc
Outline: (§1)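 Columns mapping to the same glycan were averaged after glycan names were converted to IUPAC-condensed notation. The data come from 3228 arrays in the Consortium for Functional Glycomics database, limited to those with an available protein sequence. Binding is reported as a within-array Z-score averaged across arrays of one protein sequence and across linkers.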

[2] = target: Gal(b1-3)GalNAc(b1-4)Gal(b1-4)Glc
Outline: as §1

[3] = target: Gal(b1-3)GalNAc(b1-4)[Neu5Ac(a2-3)]Gal(b1-4)Glc
Outline: as §1

Gal(b1-3)GlcNAc = target: Gal(b1-3)GlcNAc
Outline: as §1

[4] = target: Gal(b1-3)GlcNAc(a1-3)Gal(b1-4)GlcNAc
Outline: as §1

[5] = target: Gal(b1-3)GlcNAc(a1-6)Gal(b1-4)GlcNAc
Outline: as §1

Gal(b1-3)GlcNAc(b1-2)Man = target: Gal(b1-3)GlcNAc(b1-2)Man
Outline: as §1

[6] = target: Gal(b1-3)GlcNAc(b1-2)Man(a1-3)[Gal(b1-3)GlcNAc(b1-2)Man(a1-6)]Man(b1-4)GlcNAc(b1-4)GlcNAc
Outline: as §1

[7] = target: Gal(b1-3)GlcNAc(b1-2)Man(a1-3)[Gal(b1-3)GlcNAc(b1-2)Man(a1-6)]Man(b1-4)GlcNAc(b1-4)[Fuc(a1-6)]GlcNAc
Outline: as §1

[8] = target: Gal(b1-3)GlcNAc(b1-2)Man(a1-3)[GlcNAc(b1-4)][Gal(b1-3)GlcNAc(b1-2)Man(a1-6)]Man(b1-4)GlcNAc(b1-4)GlcNAc
Outline: as §1

[9] = target: Gal(b1-3)GlcNAc(b1-2)[Gal(b1-3)GlcNAc(b1-6)]Man(a1-6)[Gal(b1-3)GlcNAc(b1-2)Man(a1-3)]Man(b1-4)GlcNAc(b1-4)GlcNAc
Outline: as §1

[10] = target: Gal(b1-3)GlcNAc(b1-3)Gal(b1-3)GlcNAc
Outline: as §1

[11] = target: Gal(b1-3)GlcNAc(b1-3)Gal(b1-4)Glc
Outline: as §1

[12] = target: Gal(b1-3)GlcNAc(b1-3)Gal(b1-4)GlcNAc
Outline: as §1

[13] = target: Gal(b1-3)GlcNAc(b1-3)Gal(b1-4)GlcNAc(b1-2)Man(a1-3)[Gal(b1-3)GlcNAc(b1-3)Gal(b1-4)GlcNAc(b1-2)Man(a1-6)]Man(b1-4)GlcNAc(b1-4)GlcNAc
Outline: as §1

[14] = target: Gal(b1-3)GlcNAc(b1-3)Gal(b1-4)GlcNAc(b1-2)[Gal(b1-3)GlcNAc(b1-3)Gal(b1-4)GlcNAc(b1-6)]Man(a1-6)[Gal(b1-3)GlcNAc(b1-3)Gal(b1-4)GlcNAc(b1-2)Man(a1-3)]Man(b1-4)GlcNAc(b1-4)[Fuc(a1-6)]GlcNAc
Outline: as §1

[15] = target: Gal(b1-3)GlcNAc(b1-3)Gal(b1-4)GlcNAc(b1-3)Gal(b1-4)GlcNAc(b1-2)[Gal(b1-3)GlcNAc(b1-3)Gal(b1-4)GlcNAc(b1-3)Gal(b1-4)GlcNAc(b1-6)]Man(a1-6)[Gal(b1-3)GlcNAc(b1-3)Gal(b1-4)GlcNAc(b1-3)Gal(b1-4)GlcNAc(b1-2)Man(a1-3)]Man(b1-4)GlcNAc(b1-4)[Fuc(a1-6)]GlcNAc
Outline: as §1

[16] = target: Gal(b1-3)GlcNAc(b1-3)Gal(b1-4)GlcNAc(b1-6)[Gal(b1-3)GlcNAc(b1-3)]Gal(b1-4)Glc
Outline: as §1

[17] = target: Gal(b1-3)GlcNAc(b1-3)Gal(b1-4)[Fuc(a1-3)]GlcNAc
Outline: as §1

[18] = target: Gal(b1-3)GlcNAc(b1-3)Gal(b1-4)[Fuc(a1-3)]GlcNAc(b1-6)[Gal(b1-3)GlcNAc(b1-3)]Gal(b1-4)Glc
Outline: as §1

[19] = target: Gal(b1-3)GlcNAc(b1-3)GalNAc
Outline: as §1

[20] = target: Gal(b1-3)GlcNAc(b1-6)Gal(b1-4)GlcNAc
Outline: as §1

[21] = target: Gal(b1-3)GlcNAc(b1-6)GalNAc
Outline: as §1

[22] = target: Gal(b1-3)GlcNAc(b1-6)[Gal(b1-3)]GalNAc
Outline: as §1

Gal(b1-3)GlcNAc6S = target: Gal(b1-3)GlcNAc6S
Outline: as §1

[23] = target: Gal(b1-3)[Fuc(a1-4)]GlcNAc
Outline: as §1

[24] = target: Gal(b1-3)[Fuc(a1-4)]GlcNAc(b1-2)Man
Outline: as §1

[25] = target: Gal(b1-3)[Fuc(a1-4)]GlcNAc(b1-2)Man(a1-3)[Gal(b1-3)[Fuc(a1-4)]GlcNAc(b1-2)Man(a1-6)]Man(b1-4)GlcNAc(b1-4)[Fuc(a1-6)]GlcNAc
Outline: as §1

[26] = target: Gal(b1-3)[Fuc(a1-4)]GlcNAc(b1-3)Gal(b1-3)[Fuc(a1-4)]GlcNAc
Outline: as §1

[27] = target: Gal(b1-3)[Fuc(a1-4)]GlcNAc(b1-3)Gal(b1-4)[Fuc(a1-3)]GlcNAc
Outline: as §1

[28] = target: Gal(b1-3)[Fuc(a1-4)]GlcNAc(b1-6)GalNAc
Outline: as §1

[29] = target: Gal(b1-3)[GlcNAc(b1-6)]GalNAc
Outline: as §1

[30] = target: Gal(b1-3)[Neu5Ac(a2-6)]GalNAc
Outline: as §1

[31] = target: Gal(b1-3)[Neu5Ac(a2-6)]GlcNAc(b1-4)Gal(b1-4)Glc
Outline: as §1

[32] = target: Gal(b1-3)[Neu5Ac(b2-6)]GalNAc
Outline: as §1

Gal(b1-4)Gal = target: Gal(b1-4)Gal
Outline: as §1

[33] = target: Gal(b1-4)GalNAc(a1-3)[Fuc(a1-2)]Gal(b1-4)GlcNAc
Outline: as §1

[34] = target: Gal(b1-4)GalNAc(b1-3)[Fuc(a1-2)]Gal(b1-4)GlcNAc
Outline: as §1

B1: SspB C123 (Streptococcus gordonii), Q54186 (protein)
chain: MAHFHYSSLLAQPQINKEIKNEDGVDIDRTLVAKQSIGKFELKTEALTAGRPKTTSFVLVDPLPTGYKFDLDATKAASTGFDTTYDEASHTVTFKATDETLATYNADLTKPVETLHPTVVGRVLNDGATYTNNFTLTVNDAYGIKSNVVRVTTPGKPNDPDNPNNNYIKPTKVNKNKEGLNIDGKEVLAGSTNYYELTWDLDQYKGDKSSKEAIQNGFYYVDDYPEEALDVRPDLVKVADEKGNQVSGVSVQQYDSLEAAPKKVQDLLKKANITVKGAFQLFSADNPEEFYKQYVSTGTSLVITDPMTVKSEFGKTGGKYENKAYQIDFGNGYATEVVVNNVPKITPKKDVTVSLDPTSENLDGQTVQLYQTFNYRLIGGFIPQNHSEELEDYSFVDDYDQAGDQYTGNYKTFSSLNLTMKDGSVIKAGTDLTSQTTAETDATNGIVTVRFKEDFLQKISLDSPFQAETYLQMRRIAIGTFENTYVNTVNKVAYASAAALEHHHHHH
Question: Which “glycan array binding signal (z-score)” value [1] does the source give for B1 here?
Answer: -0.876

Question: And the “glycan array binding signal (z-score)” value [2]?
Answer: -1.1

Question: What about the “glycan array binding signal (z-score)” value [3] of the same binder?
Answer: 0.854

Question: And the “glycan array binding signal (z-score)” value (Gal(b1-3)GlcNAc)?
Answer: -0.389

Question: What about the “glycan array binding signal (z-score)” value [4] of the same binder?
Answer: -1.2

Question: What about the “glycan array binding signal (z-score)” value [5] of the same binder?
Answer: -0.134

Question: What about the “glycan array binding signal (z-score)” value (Gal(b1-3)GlcNAc(b1-2)Man) of the same binder?
Answer: 2.04

Question: What about the “glycan array binding signal (z-score)” value [6] of the same binder?
Answer: 0.755

Question: And the “glycan array binding signal (z-score)” value [7]?
Answer: 1.37

Question: And the “glycan array binding signal (z-score)” value [8]?
Answer: 0.308

Question: And the “glycan array binding signal (z-score)” value [9]?
Answer: 0.411

Question: And the “glycan array binding signal (z-score)” value [10]?
Answer: -0.569

Question: What about the “glycan array binding signal (z-score)” value [11] of the same binder?
Answer: 0.516

Question: What about the “glycan array binding signal (z-score)” value [12] of the same binder?
Answer: -0.047

Question: And the “glycan array binding signal (z-score)” value [13]?
Answer: 1.85

Question: And the “glycan array binding signal (z-score)” value [14]?
Answer: 0.355

Question: And the “glycan array binding signal (z-score)” value [15]?
Answer: 1.44

Question: And the “glycan array binding signal (z-score)” value [16]?
Answer: -1.72

Question: And the “glycan array binding signal (z-score)” value [17]?
Answer: -1.43

Question: What about the “glycan array binding signal (z-score)” value [18] of the same binder?
Answer: -0.979

Question: And the “glycan array binding signal (z-score)” value [19]?
Answer: 0.084

Question: What about the “glycan array binding signal (z-score)” value [20] of the same binder?
Answer: -0.303

Question: And the “glycan array binding signal (z-score)” value [21]?
Answer: -0.435

Question: And the “glycan array binding signal (z-score)” value [22]?
Answer: -0.374

Question: And the “glycan array binding signal (z-score)” value (Gal(b1-3)GlcNAc6S)?
Answer: -1.15

Question: What about the “glycan array binding signal (z-score)” value [23] of the same binder?
Answer: -0.989

Question: What about the “glycan array binding signal (z-score)” value [24] of the same binder?
Answer: 0.056

Question: What about the “glycan array binding signal (z-score)” value [25] of the same binder?
Answer: 0.824

Question: What about the “glycan array binding signal (z-score)” value [26] of the same binder?
Answer: -1.39

Question: What about the “glycan array binding signal (z-score)” value [27] of the same binder?
Answer: 0.768

Question: What about the “glycan array binding signal (z-score)” value [28] of the same binder?
Answer: 2.16

Question: What about the “glycan array binding signal (z-score)” value [29] of the same binder?
Answer: -0.709

Question: What about the “glycan array binding signal (z-score)” value [30] of the same binder?
Answer: 0.134

Question: And the “glycan array binding signal (z-score)” value [31]?
Answer: -0.434

Question: What about the “glycan array binding signal (z-score)” value [32] of the same binder?
Answer: 0.509

Question: What about the “glycan array binding signal (z-score)” value (Gal(b1-4)Gal) of the same binder?
Answer: 1.04

Question: And the “glycan array binding signal (z-score)” value [33]?
Answer: -1.16

Question: And the “glycan array binding signal (z-score)” value [34]?
Answer: 0.688
